This note sets out measurements from PMC4520688.

The chains behind the UniProt entries cited, without tags or fusion partners.
UniProt P50750: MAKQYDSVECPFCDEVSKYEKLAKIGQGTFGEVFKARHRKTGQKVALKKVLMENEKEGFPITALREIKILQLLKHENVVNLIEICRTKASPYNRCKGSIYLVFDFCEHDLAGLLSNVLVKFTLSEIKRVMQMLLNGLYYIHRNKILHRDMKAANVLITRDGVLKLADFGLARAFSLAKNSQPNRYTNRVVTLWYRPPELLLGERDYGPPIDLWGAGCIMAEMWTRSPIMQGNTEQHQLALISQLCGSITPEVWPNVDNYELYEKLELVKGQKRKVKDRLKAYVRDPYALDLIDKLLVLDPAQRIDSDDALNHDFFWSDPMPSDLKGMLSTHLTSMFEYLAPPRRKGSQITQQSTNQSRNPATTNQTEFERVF
UniProt O94992: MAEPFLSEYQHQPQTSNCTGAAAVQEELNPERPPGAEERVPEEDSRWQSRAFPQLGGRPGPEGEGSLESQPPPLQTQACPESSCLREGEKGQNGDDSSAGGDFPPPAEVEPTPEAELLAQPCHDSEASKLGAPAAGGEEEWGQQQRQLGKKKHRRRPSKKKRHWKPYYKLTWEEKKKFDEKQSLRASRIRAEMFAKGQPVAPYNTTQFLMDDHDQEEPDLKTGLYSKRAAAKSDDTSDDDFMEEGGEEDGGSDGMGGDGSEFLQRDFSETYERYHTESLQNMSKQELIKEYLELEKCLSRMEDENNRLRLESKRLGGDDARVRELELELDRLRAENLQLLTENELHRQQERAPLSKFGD

The test deals with CDK9 (human (endogenous in Jurkat)) (UniProt P50750). In words: co-IP; IP with anti-CDK9 antibody (control IgG) from 100 ug nuclear extracts of Jurkat cells that were mock-treated or treated with JQ1 (0.25 uM), bryostatin-1 (5 nM) or both for 1 hour or 24 hours; Western blot for CycT1 and HEXIM1.

Results are given in words; binding and its absence hold for the method and conditions named. In cells and extracts the contact can be indirect. Some binding calls cover weakened binding; strength is not graded here.

“hexamethylene bisacetamide inducible protein 1 (HEXIM1) (from UniProt O94992 1-359)”: the binding result was “binds”.
